Results reported in publication PMC11642328.
No constants are given. Whether binding was seen depends on the method and setting. Binding seen in cells or lysates may run through a third protein. A result given as binding can be weak or reduced; the word gives no strength.

Target: Recombinant full-length HF-TopBP1
Experiment: pull-down; anti-FLAG antibody beads loaded with recombinant FLAG-tagged protein incubated in Xenopus egg extracts (also mock-depleted) with or without pA-pT; beads immunoblotted; only the target purified

B1: NBS1, endogenous in Xenopus egg extracts (protein, UniProt Q6XV80 1-763)
chain: MWRLVAESAAGGTYHFLTGTDYVVGRKNCAILIPEDQSISRCHATLSVSHPSANLGQTNAASVLSIKDSSKYGTTVNGDKMNPAVPRNLKSGDKVTFGVFNSKYRVEYEPLVVCSSCLDNSEKNSLNQNLIHLGGHVLNNWTEKSTHLVMTSIKVTIKTICALICCKPIIKPDYFCELLHAIQEKRPLPDYRSFIPSVDEPSLTPESLDLSENVKRKSIFKDKVFLFLNAKQYKKLSPAVLFGGGKTDLLMGELKDASVLDNPATCVIDVAMTESQLSESQSTQPWITSTLDLLQSKGLRTIPEAEIGLAVINVSTEIYCNPRRRAASGTEAGTSKKMNVLSSTLCQGIAVDETILPAPTLDITAYAANTEPQDQTGTSWMNISGVREVKETPGNSSSHSRSKGCLQKDPKSGSSSNDLRQTLFREDETDTRKNTPSLLPTKSSARDVTKTSQKLQPTKKIDSYFQSLAKKRDRAEDEKEASSSKLPRVETLSSQTLEEKFPPVTQTLEEENFDSDLDMELAMSCDQILNDSMGSKAAMPEDSTVKKRKVPDDHVVEESDVDSDEGIRANAEQNDTKSDINVTKRRKVDSEIEGTKEPTIKPREIGTKAQVKTNSPEMAPAIRKEIEVKKELDIKKEPKSQWEESKFVPDLQGETDALPSRLLLTEFKSLVVSRPVRNNNATSNSSNGKCHNFKKFKKVAYPGAGSFPNIIGGSDLIAHDRKKNAELEQWLRQEVEEQTQQVREESLAEDLFRYNPKPSKRRR
B1 was tested, and the binding was “binds”.
